Experimental data published in PMC4072698.
Results are given in words; binding and its absence hold for the method and conditions named. In cells and extracts the contact can be indirect. Some results given as binding are weak or reduced against the parent protein; the word gives no strength.

Amino acid sequences for entries named in this document (tags omitted). Residues count along the entry.
UniProt P61823, residues 27-150: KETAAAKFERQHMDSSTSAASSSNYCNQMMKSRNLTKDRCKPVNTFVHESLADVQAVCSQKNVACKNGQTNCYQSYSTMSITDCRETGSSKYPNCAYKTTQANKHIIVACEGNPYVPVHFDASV

Key:
GFP-3xHA-AurB = GFP-3xHA-AurB (UniProt Q6DE08); assay: co-IP; recombinant GFP-AurB added to control or RNase-treated Xenopus egg extract and immunoprecipitated through GFP (anti-GFP antibody or GFP-Trap beads); western blot for Incenp, DasraA and Survivin; mock IP from extract lacking GFP-AurB as control; only the target purified
[1] = target: Aurora-B (AurB) (Xenopus laevis (endogenous in egg extract)) (UniProt Q6DE08); assay: co-IP; endogenous AurB immunoprecipitated with anti-AurB antibodies from control or RNase-treated Xenopus egg extract (RNaseA 0.1 mg/ml); western blot with anti-RNaseA beside 5-50 ng RNaseA in input; only the binder purified

Substance	binding (GFP-3xHA-AurB)	binding [1]
Incenp (from UniProt O13024 1-873)	binds	
RNaseA TypeX IIA (Sigma) (from UniProt P61823 27-150) (enzyme)		no binding (tested: 0.1 mg/ml RNaseA in extract)
